Measured data: PubChem BioAssay AID602196 (INSERM, 2012)

Aim: 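Knock-downs that protect lung cancer cells from cisplatin or sensitise them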
System: human A549 lung cancer cells
Knock-down reagent: siRNA pair against human genes
Timing: 48 h transfection before cisplatin; time from cisplatin to read-out not stated
Challenge: cisplatin at a dose killing half of control-siRNA cells; exact dose and duration not given
Measurement: 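Cisplatin cell death as a shift from the 50% death seen with control siRNA; siRNAs toxic or growth-blocking alone scored 0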
Reading the numbers: two-siRNA summed score (-2 to +2): higher = both siRNAs protect from cisplatin killing; -2 means both sensitise; mean protection from cisplatin (shift in death) and protection from cisplatin (shift in death), siRNA C and protection from cisplatin (shift in death), siRNA D: higher = protection from cisplatin killing
Call rule: 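siRNAs harmful alone (LDH or WST-1) get 0; others get +1 for less and -1 for more cisplatin killing; genes are active when the two siRNAs give the same sign, summing to ±2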
Meaning of the calls: active = both siRNAs shift cisplatin killing the same way; inactive = no consistent shift, or siRNA harmful alone
In all, the deposit lists about 23,000 reagents; below is an unselected part. 455 of all reagents (2%) count as active. 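Active includes both protection and sensitisation; some change values fall well beyond the stated -50 to +50 range.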 A number with no mark means an inactive call. No sequences are given here. The record does not give: the amount of reagent.

target gene	two-siRNA summed score (-2 to +2)	mean protection from cisplatin (shift in death) (%)	protection from cisplatin (shift in death), siRNA C (%)	protection from cisplatin (shift in death), siRNA D (%)
LOC144678	0	2.1	5.2	-0.9
NHSL3	0	5.5	7.5	3.6
LINC01123	0	7.2	16.7	-2.3
PDLIM2	0	1.2	2.8	-0.4
DHX33	0	2.4	5.7	-0.9
KLHDC8A	0	-2.8	-2	-3.6
SFRP2	1	0.3	-16.2	16.7
NKX2-2	0	9	11.4	6.5
EVA1C	1	-0.8	13.3	-14.9
LOC387883	0	11.3	21.5	1.1
POGLUT2	0	-11.6	-14.3	-8.9
LOC441697	0	7.5	2.6	12.4
PCDH1	-1	-7.6	11.3	-26.4
INSIG1	-1	-13	-2.7	-23.3
KLK15	0	-18.2	-34.2	-2.3
LOC390243	0	15.5	34.2	-3.2
ZDHHC21	0	7.4	6.2	8.6
HOGA1	0	2.3	-2.8	7.5
LOC342969	1	14.9	6.9	22.9
KRT34	0	12.8	14.3	11.3
PADI3	0	-2.4	-1.2	-3.6
ODAD1	-1	-3.6	-17.6	10.3
LOC388738	0	14.7	23.1	6.3
FLJ35848	0	6.8	6.5	7.1
LOC441130	0	-6.4	-2.5	-10.2
ZBP1	0	-2.1	-6.2	1.9
CTSK	0	-6	-6.9	-5.1
SOX12	0	-1.3	-4.3	1.7
RUVBL2	0	-3	-5.6	-0.3
LOC402098	1	3.9	16	-8.3
GSC	1	7	22.2	-8.2
GINS3	-2 (active)	-24.1	-20.6	-27.6
PNPLA8	0	14.1	15.7	12.5
LOC284591	0	5.6	12.4	-1.1
TKFC	0	-15.6	-21.1	-10.1
POU2F3	0	0.8	-7.1	8.7
LOC440539	1	12.8	21	4.5
PTCD1	0	6.7	-5.4	18.7
UBE2S	0	-8.2	-3.6	-12.7
TRIM55	0	3.2	4.6	1.8
ATP8B2	1	16.7	34	-0.5
LOC441826	0	1.8	-6.9	10.5
RGS18	-1	-6.2	-19.7	7.2
SLC9A1	0	-12.4	-4.1	-20.6
LOC390335	0	2.8	7.4	-1.9
NEUROD1	1	9.8	-2.4	22
TTYH2	0	4.6	0.1	9.1
SNAPC3	1	4.5	-3	11.9
LOC387888	0	-4.5	-2.8	-6.2
SLC25A52	0	3.8	-12.6	20.3
MUSK	0	11.7	13.6	9.8
LOC285638	0	11.1	0.7	21.6
MAP2K3	1	5.5	-1.3	12.3
LOC400576 (retired record)	0	1.4	5.1	-2.4
C11orf52	0	8.7	10.2	7.2
SLC25A11	-1	-9.2	-26.8	8.4
ADD1	-1	-1.3	-11.2	8.6

A stretch taken from the entries so far:
target gene	two-siRNA summed score (-2 to +2)	mean protection from cisplatin (shift in death) (%)	protection from cisplatin (shift in death), siRNA C (%)	protection from cisplatin (shift in death), siRNA D (%)
GINS3	-2 (active)	-24.1	-20.6	-27.6
PNPLA8	0	14.1	15.7	12.5
LOC284591	0	5.6	12.4	-1.1
TKFC	0	-15.6	-21.1	-10.1
POU2F3	0	0.8	-7.1	8.7
LOC440539	1	12.8	21	4.5
PTCD1	0	6.7	-5.4	18.7
UBE2S	0	-8.2	-3.6	-12.7
TRIM55	0	3.2	4.6	1.8
